Data taken from the supplement of paper PMC12823440, “Inhibitors supercharge kinase turnover through native proteolytic circuits” (Nature, 2025).
Structures can show the parent of a compound that is named as a salt. Some of the results follow. The calls rarely recur for the same compound in another form.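 Kinases were expressed as nanoluciferase fusions in K562 cells and luminescence was read every 4 h between 2 and 18 h as percent of control, DMSO set to 100% and a positive control to 0%. A time point counts as decreased when the signal drops significantly (2 sigma). The hit call is the authors' own, does not follow from the count of time points alone, and its rule is not shown.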

Amino acid sequences for entries named in this document (tags omitted). A change or cut given only in a name is not applied to a line headed by its entry.
UniProt Q9UM73: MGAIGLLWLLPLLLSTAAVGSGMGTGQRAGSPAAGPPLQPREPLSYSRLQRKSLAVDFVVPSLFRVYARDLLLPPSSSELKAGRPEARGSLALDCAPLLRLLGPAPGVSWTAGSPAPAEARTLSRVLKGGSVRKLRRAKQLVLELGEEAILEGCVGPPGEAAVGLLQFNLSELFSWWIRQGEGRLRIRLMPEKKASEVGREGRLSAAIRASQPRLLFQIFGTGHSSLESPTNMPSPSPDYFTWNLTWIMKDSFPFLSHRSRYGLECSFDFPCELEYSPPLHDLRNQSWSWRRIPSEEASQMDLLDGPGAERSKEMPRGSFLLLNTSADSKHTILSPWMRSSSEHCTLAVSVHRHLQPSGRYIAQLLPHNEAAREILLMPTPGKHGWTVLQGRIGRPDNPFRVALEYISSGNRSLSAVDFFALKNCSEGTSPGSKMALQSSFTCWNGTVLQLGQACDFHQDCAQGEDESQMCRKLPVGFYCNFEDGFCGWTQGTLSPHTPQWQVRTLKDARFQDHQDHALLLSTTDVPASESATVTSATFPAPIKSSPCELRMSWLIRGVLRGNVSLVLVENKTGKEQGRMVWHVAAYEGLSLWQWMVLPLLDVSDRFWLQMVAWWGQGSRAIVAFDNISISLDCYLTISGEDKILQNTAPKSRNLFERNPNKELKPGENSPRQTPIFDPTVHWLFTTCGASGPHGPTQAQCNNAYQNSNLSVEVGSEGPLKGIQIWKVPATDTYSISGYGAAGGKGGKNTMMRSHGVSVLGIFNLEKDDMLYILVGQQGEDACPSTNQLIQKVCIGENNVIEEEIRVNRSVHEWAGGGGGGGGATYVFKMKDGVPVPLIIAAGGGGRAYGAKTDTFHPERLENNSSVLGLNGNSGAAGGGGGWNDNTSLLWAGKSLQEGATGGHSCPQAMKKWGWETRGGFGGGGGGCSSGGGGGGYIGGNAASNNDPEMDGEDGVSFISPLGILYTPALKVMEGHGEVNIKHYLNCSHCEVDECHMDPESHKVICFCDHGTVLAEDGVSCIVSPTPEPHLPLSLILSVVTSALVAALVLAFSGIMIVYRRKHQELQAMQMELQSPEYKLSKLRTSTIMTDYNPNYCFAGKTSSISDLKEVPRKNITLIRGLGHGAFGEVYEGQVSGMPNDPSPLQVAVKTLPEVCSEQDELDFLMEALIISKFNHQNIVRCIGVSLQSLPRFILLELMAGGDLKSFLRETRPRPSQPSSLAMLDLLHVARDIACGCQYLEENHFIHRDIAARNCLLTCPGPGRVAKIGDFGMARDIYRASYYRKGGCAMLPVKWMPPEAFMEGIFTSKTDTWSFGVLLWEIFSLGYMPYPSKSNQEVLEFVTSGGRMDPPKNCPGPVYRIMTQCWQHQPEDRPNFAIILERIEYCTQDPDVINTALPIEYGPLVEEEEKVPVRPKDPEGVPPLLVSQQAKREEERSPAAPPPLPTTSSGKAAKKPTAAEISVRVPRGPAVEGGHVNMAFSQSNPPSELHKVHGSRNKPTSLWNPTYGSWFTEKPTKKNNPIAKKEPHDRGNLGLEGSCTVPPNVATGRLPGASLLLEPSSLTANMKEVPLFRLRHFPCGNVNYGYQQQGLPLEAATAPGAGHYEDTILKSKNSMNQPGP

What follows are compounds tested against ALK (UniProt Q9UM73) (assay: number of time points (of 5) at which kinase-Nluc abundance scored as decreased, DMSO-normalised (count); higher = more persistent destabilization). Settings: K562; 2-18 h.
`N#Cc1cnc2c(Cl)cc(NCc3cn(CCN4CCCCCC4)nn3)cc2c1Nc1ccc(F)c(Cl)c1` [Cot inhibitor-1] (10 µM) was tested, and the “number of time points” value was 0. `Cc1cc(Nc2cc(N)ncn2)c(=O)n2c1C(=O)NC21CCCCC1` [Tomivosertib] (10 µM) was tested, and the “number of time points” value was 0. For `CC(Cc1ccc(O)c(O)c1)C(C)Cc1ccc(O)c(O)c1` (stereo not drawn) [Nordihydroguaiaretic acid] (2.5 µM), the “number of time points” value was 0. For `CNC(=O)c1ccc2c(C(=Nc3cccc(CN(C)C)c3)c3ccccc3)c(O)[nH]c2c1` [MEK inhibitor] (10 µM), the “number of time points” value was 0. With `COC(=O)[C@H](CCSC)NC(=O)c1ccc(NC[C@@H](N)CS)cc1-c1ccccc1` [FTI-277 (hydrochloride)] (10 µM) the “number of time points” value was 0. In the case of `C=CC(=O)Nc1ccc(C(=O)Nc2[nH]nc3c2CN(C(=O)N[C@H](CN(C)C)c2ccccc2)C3(C)C)cc1` (10 µM), the “number of time points” value is reported as 2. `CCN(CC)CCCC(C)Nc1nc(C)cc(Nc2ccc3nc(C)cc(N)c3c2)n1` (stereo not drawn) (10 µM) was tested, and the “number of time points” value was 0. With `COc1cc(F)ccc1-c1ncnc(Nc2cccc(C[S@](C)(=N)=O)c2)n1` [Atuveciclib] (2.5 µM) the “number of time points” value was 2. With `O=C(c1cccc(Cl)c1F)N1CCN(Cc2cccc(Nc3nccs3)n2)CC1` (2.5 µM) the “number of time points” value was 0. `N#Cc1ccc(-c2cnc3ccc(-c4ccc(C(=O)N5CCOCC5)cc4)cn23)cc1` (10 µM) was tested, and the “number of time points” value was 0. For `Cc1ccc(C(=O)NC2CC2)cc1-n1ncc(C(=O)c2cccc(C#N)c2)c1N` [Acumapimod] (10 µM), the “number of time points” value was 0. In the case of `N#Cc1ccc(-c2cnc3[nH]cc(NC(=O)c4cccnc4)c3c2)cc1` (10 µM), the “number of time points” value is reported as 0. `CC1(N)CCN(c2cccnc2NC(=O)c2nc(-c3ncccc3C(F)(F)F)cnc2N)CC1` [Darovasertib] (10 µM) was tested, and the “number of time points” value was 0. With `COc1cc(N2CCC(N3CCN(C)CC3)CC2)ccc1Nc1ncc(Cl)c(-c2c[nH]c3ccccc23)n1` (2.5 µM) the “number of time points” value was 0. For `CN1CCN(c2ccc(Nc3ncc4cc(C#N)c(=O)n(C5CCCC5)c4n3)cc2)CC1` (10 µM), the “number of time points” value was 0. With `CO[C@H]1CC[C@H](N2C(=O)CNc3ncc(-c4ccc(C(C)(C)O)nc4)nc32)CC1` (2.5 µM) the “number of time points” value was 0. For `Cc1c(C(=O)Nc2ccc(Oc3ccnc4[nH]cc(-c5ccccc5)c34)c(F)c2)c(=O)n(-c2ccc(F)cc2)n1C` (10 µM), the “number of time points” value was 0. For `COc1ccc(Nc2ncc(C(F)(F)F)c(NC3CC3)n2)cc1OC` (10 µM), the “number of time points” value was 1. With `C[C@@H]1O[C@@H](Oc2cc(O)c3c(=O)c(O[C@@H]4O[C@@H](C)[C@H](O)[C@@H](O)[C@H]4O)c(-c4ccc(O)cc4)oc3c2)[C@H](O)[C@H](O)[C@H]1O` [Kaempferitrin] (10 µM) the “number of time points” value was 0. For `COC(=O)Nc1ccc(-c2nc(N3CCOCC3)c3cnn(C4CCN(Cc5cccnc5)CC4)c3n2)cc1` (10 µM), the “number of time points” value was 0. `CC(C)Oc1ccc(F)c(-c2cnc(N)c(C(=O)Nc3cnccc3N3CCC[C@@H](C(=O)O)C3)n2)c1` (2 µM) was tested, and the “number of time points” value was 0. With `O=Nc1c(-c2c(O)[nH]c3cc(Br)ccc23)[nH]c2ccccc12` [GSK 3 Inhibitor IX] (2.5 µM) the “number of time points” value was 0. With `NCC1CCC(CNc2nc(NCc3ccccc3OC(F)(F)F)ncc2[N+](=O)[O-])CC1` (stereo not drawn) [PKC-theta inhibitor] (10 µM) the “number of time points” value was 4. For `N[C@@H]1CCCN(c2c(/C=C3\SC(=O)NC3=O)cccc2-c2ccccc2)C1` (10 µM), the “number of time points” value was 0. `CCn1c(-c2nonc2N)nc2c(C#CC(C)(C)O)ncc(OC[C@H]3CCCNC3)c21` (10 µM) was tested, and the “number of time points” value was 0. `CNC(=O)c1cc2c(Oc3ccc(NC(=O)C4(C(=O)Nc5ccc(F)cc5)CC4)cc3)ccnc2cc1OC` (2.5 µM) was tested, and the “number of time points” value was 2. `C=CC(=O)N1CC[C@@H](Oc2nc(Nc3ccc(N4CCC(N5CCN(C)CC5)CC4)cc3)c(C(N)=O)nc2CC)C1` [Naquotinib (mesylate)] (2.5 µM) was tested, and the “number of time points” value was 0. `C=CC(=O)Nc1cc(Nc2nccc(-c3cn(C)c4ccccc34)n2)c(OC)cc1OCCN(C)C` [Rezivertinib] (2.5 µM) was tested, and the “number of time points” value was 0. In the case of `Oc1c(F)cc(-c2cnccc2-c2ccc(N3CCOCC3)cc2)cc1F` (10 µM), the “number of time points” value is reported as 0. With `Brc1ccc(CSc2nc3ccccc3o2)cc1` [BMP signaling agonist sb4] (10 µM) the “number of time points” value was 0. `O=C1OC(/C=C/c2ccccc2)=NC/1=C\c1cccnc1` (10 µM) was tested, and the “number of time points” value was 0. `O=C(NCCN1CCOCC1)Nc1nc2ccc(Sc3nnc4ccc(-c5ccc(F)cc5)nn34)cc2s1` (10 µM) was tested, and the “number of time points” value was 0. In the case of `Cn1c(CNc2cccc(C(=O)NCc3ccccc3C(F)(F)F)c2)nnc1-c1ccncc1` (10 µM), the “number of time points” value is reported as 0. In the case of `COc1cc2cc(Oc3ccc4ccc(=O)oc4c3)c(=O)oc2cc1O` [Daphnoretin] (10 µM), the “number of time points” value is reported as 0. In the case of `O=C(O)c1cc(N(Cc2ccccc2O)Cc2cc(O)ccc2O)ccc1O` [Lavendustin A] (10 µM), the “number of time points” value is reported as 2. In the case of `Cc1c(Cl)cccc1S(=O)(=O)Nc1nc(NCCc2ccccc2)nc2c1CN(Cc1ccccc1)CC2` (2.5 µM), the “number of time points” value is reported as 0. For `CO[C@H]1C[C@@H]2CC[C@@H](C)[C@@](O)(O2)C(=O)C(=O)N2CCCC[C@H]2C(=O)O[C@H]([C@H](C)C[C@@H]2CC[C@@H](OC(=O)C(C)(CO)CO)[C@H](OC)C2)CC(=O)[C@H](C)/C=C(\C)[C@@H](O)[C@@H](OC)C(=O)[C@H](C)C[C@H](C)/C=C/C=C/C=C/1C` [Temsirolimus] (2.5 µM), the “number of time points” value was 0. With `O=C1Nc2ccc(CN3C(=O)CSC3=O)cc2/C1=C/c1cc(CN2CCOCC2)c[nH]1` (10 µM) the “number of time points” value was 0.
